2 molecules from PMC9687537 can be followed below.

This assay concerns the target T1, GFP–WDR34-WT (human), Q96EX3.
T1 chain: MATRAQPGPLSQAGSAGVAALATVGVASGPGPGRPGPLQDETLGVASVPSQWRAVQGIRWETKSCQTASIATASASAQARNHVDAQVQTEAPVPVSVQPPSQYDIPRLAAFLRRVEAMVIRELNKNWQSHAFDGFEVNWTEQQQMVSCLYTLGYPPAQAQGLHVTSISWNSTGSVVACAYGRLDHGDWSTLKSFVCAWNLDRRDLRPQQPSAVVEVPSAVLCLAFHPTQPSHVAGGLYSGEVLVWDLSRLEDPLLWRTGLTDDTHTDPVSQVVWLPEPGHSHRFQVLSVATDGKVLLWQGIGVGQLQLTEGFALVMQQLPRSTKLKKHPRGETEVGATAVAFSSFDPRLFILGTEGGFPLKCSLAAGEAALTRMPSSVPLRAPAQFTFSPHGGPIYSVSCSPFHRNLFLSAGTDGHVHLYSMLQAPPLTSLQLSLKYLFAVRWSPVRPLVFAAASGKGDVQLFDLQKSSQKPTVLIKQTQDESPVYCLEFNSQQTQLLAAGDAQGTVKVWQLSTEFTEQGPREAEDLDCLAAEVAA
As to the kind of experiment: affinity purification with mass spectrometry; GFP-Trap beads on clarified lysates of RPE1 WDR34 KO cells stably expressing GFP proteins, serum-starved 24 h; cells cross-linked with 1 mM DSP before lysis; 16-plex TMT labelling; abundances normalised to WDR34 (GFP only: to GFP) and compared with GFP–WDR34-WT; three independent experiments (PXD032758). Particulars: remark: other sources report otherwise.

These are yes or no findings as the source states them, for the method shown. In cells and extracts the contact can be indirect. Here binding means that the protein was enriched with, or labelled near, the bait; the list need not be complete. A no says only that the protein was not detected with the bait. Where a sequence is shown, tags or fusion partners need not be part of it.

B1: DYNLT3, P51808 1-116 (protein)
chain: MEEYHRHCDEVGFNAEEAHNIVKECVDGVLGGEDYNHNNINQWTASIVEQSLTHLVKLGKAYKYIVTCAVVQKSAYGFHTASSCFWDTTSDGTCTVRWENRTMNCIVNVFAIAIVL
As to B1, the binding entry is given as “no binding”.

B2: DYNLRB2, Q8TF09 1-96 (protein)
chain: MAEVEETLKRIQSHKGVIGTMVVNAEGIPIRTTLDNSTTVQYAGLLHHLTMKAKSTVRDIDPQNDLTFLRIRSKKHEIMVAPDKEYLLIVIQNPCE
On to B2, for which the binding result is reported as “no binding”.
